Three compounds from PubChem BioAssay AID308 (DTP/NCI, 2004) can be followed below.

The assay deals with BDF1 mice, L1210 6-MP/6-TG resistant leukemia ip, survival T/C. Briefly: NCI In Vivo Anticancer Drug Screen. Data for tumor model L1210 Leukemia resistant to 6-MP and 6-Thioguanine; NSC 755, NSC 752 (intraperitoneal) in B6D2F1 (BDF1) mice. Conditions: T/C endpoint: mean survival time, schedule: Q01DX Z (ip), higher T/C = longer survival. The method, then:
The antitumor activity of compounds was measured in mice bearing transplantable tumors. Survival or tumor size were measured and the results are expressed as the measurement made in the treated group (T) divided by the measurement made in the vehicle treated control group (C). The tumor model used in this assay is L1210 Leukemia resistant to 6-MP and 6-Thioguanine; NSC 755, NSC 752 (intraperitoneal) in B6D2F1 (BDF1) mice

Setting [1] is: dose: 3.0 mg/kg/injection, vehicle: carboxymethylcellulose (CMC).

The list does not hold the whole screen: it covers a few groups of compounds. Not every dose and run of a compound is shown. T/C: endpoint of the treated group in % of that of the vehicle group. Some doses have a count of surviving animals in place of a T/C: the source files T/C as zero there, which appears to mark a toxic dose or a test without result, not a measured value. Some survivor counts are full or nearly so, which does not show that the dose was tolerated: the source hardly ever lists a survival T/C far under the control, and the zero likely stands for such cases as well. Counts of survivors are from the toxicity check (mostly the fifth day) where no day follows; animals may have died later. Schedules are NCI's codes, read here as Q, the interval in days (D) or hours (H), X, the number of doses. Some schedules carry Z or #; the key to these is not given. For survival time, this PubChem deposit counts one and a half times the control or more as active, and values a quarter to a half above the control carry no call in these data; other NCI protocols may use other cut-offs. Some T/C values are followed by the survivors on the day toxicity was checked, most often the fifth; where neither a count nor a note follows, no animal had died by that day. Some entries hold several experiments; the results are listed from low to high.

For the compound `CC[C@H](C)[C@@H]1NC(=O)/C(=C(\C)O)C1=O`, the T/C (dose: 18.0 mg/kg/injection, vehicle: saline) is 102 % of control; the T/C (dose: 25.0 mg/kg/injection, vehicle: saline) was 102 % of control; the T/C (dose: 37.5 mg/kg/injection, vehicle: saline) was 101 % of control; the T/C (dose: 50.0 mg/kg/injection, vehicle: saline) was 112 % of control; the T/C (dose: 75.0 mg/kg/injection, vehicle: saline) was 110 % of control; the T/C (dose: 100.0 mg/kg/injection, vehicle: saline) was 103 % of control. Besides, the survivor count reads like this: (dose: 150.0 mg/kg/injection, vehicle: saline) 1 of 6; (dose: 200.0 mg/kg/injection, vehicle: saline) 0 of 6.

For the compound `Cc1[nH]c(=O)[nH]c(=O)c1N(CCCl)CCCl`, the T/C was 93 % of control (dose: 0.06 mg/kg/injection, vehicle: carboxymethylcellulose (CMC)); 87 % of control (dose: 0.12 mg/kg/injection, vehicle: carboxymethylcellulose (CMC)); 97 % of control (dose: 0.25 mg/kg/injection, vehicle: carboxymethylcellulose (CMC)); 111 % of control (dose: 0.5 mg/kg/injection, vehicle: carboxymethylcellulose (CMC)); 115 [5 of 6 alive] and 159 % of control (dose: 1.0 mg/kg/injection, vehicle: carboxymethylcellulose (CMC)); 132 % of control [5 of 6 alive] (dose: 2.0 mg/kg/injection, vehicle: carboxymethylcellulose (CMC)). Besides, the T/C under setting [1] was 105 % of control and the T/C (dose: 4.0 mg/kg/injection, vehicle: carboxymethylcellulose (CMC)) was 101 % of control. Further, the survivor count by setting is: (dose: 5.0 mg/kg/injection, vehicle: carboxymethylcellulose (CMC)) 4 of 6; (dose: 10.0 mg/kg/injection, vehicle: carboxymethylcellulose (CMC)) 1 of 6; (dose: 15.0 mg/kg/injection, vehicle: carboxymethylcellulose (CMC)) 3 of 6; (dose: 20.0 mg/kg/injection, vehicle: carboxymethylcellulose (CMC)) 1 of 6.

Take `CN(N=O)C(=N)N[N+](=O)[O-]`: the T/C was 103 % of control (dose: 1.5 mg/kg/injection, vehicle: carboxymethylcellulose (CMC)); 131 % of control under setting [1]; 143 % of control (dose: 6.25 mg/kg/injection, vehicle: carboxymethylcellulose (CMC)); 153 % of control (dose: 12.5 mg/kg/injection, vehicle: carboxymethylcellulose (CMC)); 114 % of control (dose: 25.0 mg/kg/injection, vehicle: carboxymethylcellulose (CMC)). In addition, the survivor count by setting is: (dose: 37.5 mg/kg/injection, vehicle: carboxymethylcellulose (CMC)) 6 of 6; (dose: 50.0 mg/kg/injection, vehicle: carboxymethylcellulose (CMC)) 3 of 6; (dose: 75.0 mg/kg/injection, vehicle: carboxymethylcellulose (CMC)) 0 of 6.
